Some of the results follow. Repeats are few or missing, and single values can be far off.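 The apoptosis fraction was the count of cleaved-PARP antibody-stained nuclei relative to all DNA-stained nuclei, imaged in 1,536-well plates. Screening doses were set so most cells survived, and baseline and induced cleaved-PARP levels vary greatly across cell lines.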
system: CBRC017 (line from a melanoma biopsy); assay: cleaved PARP positive nuclei fraction relative to DMSO control; melanoma cells; higher = more apoptosis; details: library dose: low library concentration; 72 h

Compound | cleaved PARP positive nuclei fraction [%]
CN(c1ncccc1CNc1nc(Nc2ccc3c(c2)CC(=O)N3)ncc1C(F)(F)F)S(C)(=O)=O + CS(=O)(=O)CCNCc1ccc(-c2ccc3ncnc(Nc4ccc(OCc5cccc(F)c5)c(Cl)c4)c3c2)o1 [lapatinib] (first compound 0.08 µM, partner dose 0.8 µM) | 90
CCCCCCCCc1ccc(CCC(N)(CO)CO)cc1 [fingolimod] + CC(=O)O[C@@]12CO[C@@H]1C[C@H](O)[C@@]1(C)C(=O)[C@H](O)C3=C(C)[C@@H](OC(=O)[C@H](O)[C@@H](NC(=O)OC(C)(C)C)c4ccccc4)C[C@@](O)([C@@H](OC(=O)c4ccccc4)[C@H]21)C3(C)C [Docetaxel] (first compound 2 µM, partner dose 0.0001 µM) | 175
CCCCCCCCc1ccc(CCC(N)(CO)CO)cc1 [fingolimod] + COCC[n+]1c2c(n(Cc3cnccn3)c1C)C(=O)c1ccccc1C2=O [YM155] (first compound 2 µM, partner dose 0.0004 µM) | 112
NC1(c2ccc(-c3nc4ccn5c(=O)[nH]nc5c4cc3-c3ccccc3)cc2)CCC1 + C[C@@H](Oc1cc(-c2cnn(C3CCNCC3)c2)cnc1N)c1c(Cl)ccc(F)c1Cl [Crizotinib] (first compound 0.4 µM, partner dose 0.2 µM) | 120
C[C@]1(O)C[C@@H](c2nc(-c3ccc4ccc(-c5ccccc5)nc4c3)c3c(N)nccn32)C1 + Cc1cc(Nc2cc(N3CCN(C)CC3)nc(/C=C/c3ccccc3)n2)n[nH]1 [ENMD2076] (first compound 0.4 µM, partner dose 0.04 µM) | 99.2
Cn1sc(=O)n(Cc2ccccc2)c1=O + C[C@@H](Oc1cc(-c2cnn(C3CCNCC3)c2)cnc1N)c1c(Cl)ccc(F)c1Cl [Crizotinib] (first compound 0.4 µM, partner dose 0.2 µM) | 122
NC(=O)c1ccc(N(C(N)=O)c2c(F)cccc2F)nc1-c1ccc(F)cc1F + CCCCCCCCc1ccc(CCC(N)(CO)CO)cc1 [fingolimod] (first compound 0.4 µM, partner dose 2 µM) | 249
NC1(c2ccc(-c3nc4ccn5c(=O)[nH]nc5c4cc3-c3ccccc3)cc2)CCC1 + CO[C@H]1C[C@@H]2CC[C@@H](C)[C@@](O)(O2)C(=O)C(=O)N2CCCC[C@H]2C(=O)O[C@H]([C@H](C)C[C@@H]2CC[C@@H](OCCO)[C@H](OC)C2)CC(=O)[C@H](C)/C=C(\C)[C@@H](O)[C@@H](OC)C(=O)[C@H](C)C[C@H](C)/C=C/C=C/C=C/1C [everolimus] (first compound 0.4 µM, partner dose 0.02 µM) | 115

system: CBRC034 (line from a melanoma biopsy); assay: as above; details: library dose: low library concentration; 72 h

Compound | cleaved PARP positive nuclei fraction [%]
CS(=O)(=O)c1ccc(C(=O)Nc2ccc(Cl)c(-c3ccccn3)c2)c(Cl)c1 [vismodegib] + OCc1c[nH]c2ccccc12 [Indole-3-carbinol] (first compound 1 µM, partner dose 0.8 µM) | 103
COc1ccc(C2=N[C@@H](c3ccc(Cl)cc3)[C@@H](c3ccc(Cl)cc3)N2C(=O)N2CCNC(=O)C2)c(OC(C)C)c1 [Nutlin-3] + NC1(c2ccc(-c3nc4ccn5c(=O)[nH]nc5c4cc3-c3ccccc3)cc2)CCC1 [MK2206] (first compound 0.1 µM, partner dose 0.4 µM) | 72.6
COc1ccc(C2=N[C@@H](c3ccc(Cl)cc3)[C@@H](c3ccc(Cl)cc3)N2C(=O)N2CCNC(=O)C2)c(OC(C)C)c1 [Nutlin-3] + Clc1ccc(Nc2nnc(Cc3ccncc3)c3ccccc23)cc1 [vatalanib] (first compound 0.1 µM, partner dose 2 µM) | 72.6
Cn1sc(=O)n(Cc2ccccc2)c1=O + CN(c1ncccc1CNc1nc(Nc2ccc3c(c2)CC(=O)N3)ncc1C(F)(F)F)S(C)(=O)=O [PF562271] (first compound 0.4 µM, partner dose 0.08 µM) | 40.2
Cn1cnc2c(F)c(Nc3ccc(Br)cc3Cl)c(C(=O)NOCCO)cc21 [selumetinib] + CNC(=O)c1cc(Oc2ccc(NC(=O)Nc3ccc(Cl)c(C(F)(F)F)c3)cc2)ccn1 [sorafenib] (first compound 0.015 µM, partner dose 0.4 µM) | 214
NC1(c2ccc(-c3nc4ccn5c(=O)[nH]nc5c4cc3-c3ccccc3)cc2)CCC1 + CCCS(=O)(=O)Nc1ccc(F)c(C(=O)c2c[nH]c3ncc(Cl)cc23)c1F [PLX4720] (first compound 0.4 µM, partner dose 0.08 µM) | 23.9
NC(=O)c1ccc(N(C(N)=O)c2c(F)cccc2F)nc1-c1ccc(F)cc1F + C#Cc1cccc(Nc2ncnc3cc(OCCOC)c(OCCOC)cc23)c1 [erlotinib] (first compound 0.4 µM, partner dose 0.8 µM) | 58.3
C[C@@H](N)c1ccc(C(=O)Nc2ccnc3[nH]ccc23)cc1 + Cn1sc(=O)n(Cc2ccccc2)c1=O [TDZD-8] (first compound 0.4 µM, partner dose 0.4 µM) | 58.8
CS(=O)(=O)c1ccc(C(=O)Nc2ccc(Cl)c(-c3ccccn3)c2)c(Cl)c1 [vismodegib] + CCCCCCCCc1ccc(CCC(N)(CO)CO)cc1 [fingolimod] (first compound 1 µM, partner dose 2 µM) | 64.3
Cn1cnc2c(F)c(Nc3ccc(Br)cc3Cl)c(C(=O)NOCCO)cc21 [selumetinib] + C#Cc1cccc(Nc2ncnc3cc(OCCOC)c(OCCOC)cc23)c1 [erlotinib] (first compound 0.015 µM, partner dose 0.8 µM) | 351
CC1(C)CCC(c2ccc(Cl)cc2)=C(CN2CCN(c3ccc(C(=O)NS(=O)(=O)c4ccc(N[C@H](CCN5CCOCC5)CSc5ccccc5)c(S(=O)(=O)C(F)(F)F)c4)cc3)CC2)C1 + CS(=O)(=O)CCNCc1ccc(-c2ccc3ncnc(Nc4ccc(OCc5cccc(F)c5)c(Cl)c4)c3c2)o1 [lapatinib] (first compound 0.4 µM, partner dose 0.8 µM) | 58.6
CC1(C)CCC(c2ccc(Cl)cc2)=C(CN2CCN(c3ccc(C(=O)NS(=O)(=O)c4ccc(N[C@H](CCN5CCOCC5)CSc5ccccc5)c(S(=O)(=O)C(F)(F)F)c4)cc3)CC2)C1 + O=C(O)[C@@H]1[O][Sb](=[O])([O][Sb]2(=[O])[O][C@H]([C@H](O)CO)[C@H](O)[C@H](C(=O)O)[O]2)[O][C@H]([C@H](O)CO)[C@@H]1O [stibogluconate] (first compound 0.4 µM, partner dose 2 µM) | 335
CC1(C)CCC(c2ccc(Cl)cc2)=C(CN2CCN(c3ccc(C(=O)NS(=O)(=O)c4ccc(N[C@H](CCN5CCOCC5)CSc5ccccc5)c(S(=O)(=O)C(F)(F)F)c4)cc3)CC2)C1 + Nc1ccn([C@@H]2O[C@H](CO)[C@@H](O)C2(F)F)c(=O)n1 [gemcitabine] (first compound 0.4 µM, partner dose 0.0004 µM) | 271
C[C@]1(O)C[C@@H](c2nc(-c3ccc4ccc(-c5ccccc5)nc4c3)c3c(N)nccn32)C1 + CC(=O)O[C@@]12CO[C@@H]1C[C@H](O)[C@@]1(C)C(=O)[C@H](O)C3=C(C)[C@@H](OC(=O)[C@H](O)[C@@H](NC(=O)OC(C)(C)C)c4ccccc4)C[C@@](O)([C@@H](OC(=O)c4ccccc4)[C@H]21)C3(C)C [Docetaxel] (first compound 0.4 µM, partner dose 0.0001 µM) | 173
CC1(C)CCC(c2ccc(Cl)cc2)=C(CN2CCN(c3ccc(C(=O)NS(=O)(=O)c4ccc(N[C@H](CCN5CCOCC5)CSc5ccccc5)c(S(=O)(=O)C(F)(F)F)c4)cc3)CC2)C1 + Cn1sc(=O)n(Cc2ccccc2)c1=O [TDZD-8] (first compound 0.4 µM, partner dose 0.4 µM) | 161
C[C@]1(O)C[C@@H](c2nc(-c3ccc4ccc(-c5ccccc5)nc4c3)c3c(N)nccn32)C1 + OCc1c[nH]c2ccccc12 [Indole-3-carbinol] (first compound 0.4 µM, partner dose 0.8 µM) | 29.6
CN(c1ncccc1CNc1nc(Nc2ccc3c(c2)CC(=O)N3)ncc1C(F)(F)F)S(C)(=O)=O + C[C@]1(c2nc3c(C(N)=O)cccc3[nH]2)CCCN1 [Veliparib] (first compound 0.08 µM, partner dose 1.4 µM) | 92.4
C[C@]1(O)C[C@@H](c2nc(-c3ccc4ccc(-c5ccccc5)nc4c3)c3c(N)nccn32)C1 + CCCS(=O)(=O)Nc1ccc(F)c(C(=O)c2c[nH]c3ncc(Cl)cc23)c1F [PLX4720] (first compound 0.4 µM, partner dose 0.08 µM) | 149
CN(c1ncccc1CNc1nc(Nc2ccc3c(c2)CC(=O)N3)ncc1C(F)(F)F)S(C)(=O)=O + Cn1c(=O)n(-c2ccc(C(C)(C)C#N)cc2)c2c3cc(-c4cnc5ccccc5c4)ccc3ncc21 [NVP-BEZ235] (first compound 0.08 µM, partner dose 0.004 µM) | 87
NC(=O)c1ccc(N(C(N)=O)c2c(F)cccc2F)nc1-c1ccc(F)cc1F + CC(=O)c1c(C)c2cnc(Nc3ccc(N4CCNCC4)cn3)nc2n(C2CCCC2)c1=O [palbociclib] (first compound 0.4 µM, partner dose 0.04 µM) | 49.2

Exported tab-delimited: entries from further up.
Compound	cleaved PARP positive nuclei fraction [%]
Cn1cnc2c(F)c(Nc3ccc(Br)cc3Cl)c(C(=O)NOCCO)cc21 [selumetinib] + CNC(=O)c1cc(Oc2ccc(NC(=O)Nc3ccc(Cl)c(C(F)(F)F)c3)cc2)ccn1 [sorafenib] (first compound 0.015 µM, partner dose 0.4 µM)	214
NC(=O)c1ccc(N(C(N)=O)c2c(F)cccc2F)nc1-c1ccc(F)cc1F + C#Cc1cccc(Nc2ncnc3cc(OCCOC)c(OCCOC)cc23)c1 [erlotinib] (first compound 0.4 µM, partner dose 0.8 µM)	58.3
Cn1cnc2c(F)c(Nc3ccc(Br)cc3Cl)c(C(=O)NOCCO)cc21 [selumetinib] + C#Cc1cccc(Nc2ncnc3cc(OCCOC)c(OCCOC)cc23)c1 [erlotinib] (first compound 0.015 µM, partner dose 0.8 µM)	351
CN(c1ncccc1CNc1nc(Nc2ccc3c(c2)CC(=O)N3)ncc1C(F)(F)F)S(C)(=O)=O + C[C@]1(c2nc3c(C(N)=O)cccc3[nH]2)CCCN1 [Veliparib] (first compound 0.08 µM, partner dose 1.4 µM)	92.4
C[C@]1(O)C[C@@H](c2nc(-c3ccc4ccc(-c5ccccc5)nc4c3)c3c(N)nccn32)C1 + CCCS(=O)(=O)Nc1ccc(F)c(C(=O)c2c[nH]c3ncc(Cl)cc23)c1F [PLX4720] (first compound 0.4 µM, partner dose 0.08 µM)	149
CN(c1ncccc1CNc1nc(Nc2ccc3c(c2)CC(=O)N3)ncc1C(F)(F)F)S(C)(=O)=O + Cn1c(=O)n(-c2ccc(C(C)(C)C#N)cc2)c2c3cc(-c4cnc5ccccc5c4)ccc3ncc21 [NVP-BEZ235] (first compound 0.08 µM, partner dose 0.004 µM)	87
NC(=O)c1ccc(N(C(N)=O)c2c(F)cccc2F)nc1-c1ccc(F)cc1F + CC(=O)c1c(C)c2cnc(Nc3ccc(N4CCNCC4)cn3)nc2n(C2CCCC2)c1=O [palbociclib] (first compound 0.4 µM, partner dose 0.04 µM)	49.2
